We go through 4 substances from publication PMC8834445.

Amino acid sequences for entries named in this document (tags omitted). A change or cut given only in a name is not applied to a line headed by its entry.
UniProt O94874: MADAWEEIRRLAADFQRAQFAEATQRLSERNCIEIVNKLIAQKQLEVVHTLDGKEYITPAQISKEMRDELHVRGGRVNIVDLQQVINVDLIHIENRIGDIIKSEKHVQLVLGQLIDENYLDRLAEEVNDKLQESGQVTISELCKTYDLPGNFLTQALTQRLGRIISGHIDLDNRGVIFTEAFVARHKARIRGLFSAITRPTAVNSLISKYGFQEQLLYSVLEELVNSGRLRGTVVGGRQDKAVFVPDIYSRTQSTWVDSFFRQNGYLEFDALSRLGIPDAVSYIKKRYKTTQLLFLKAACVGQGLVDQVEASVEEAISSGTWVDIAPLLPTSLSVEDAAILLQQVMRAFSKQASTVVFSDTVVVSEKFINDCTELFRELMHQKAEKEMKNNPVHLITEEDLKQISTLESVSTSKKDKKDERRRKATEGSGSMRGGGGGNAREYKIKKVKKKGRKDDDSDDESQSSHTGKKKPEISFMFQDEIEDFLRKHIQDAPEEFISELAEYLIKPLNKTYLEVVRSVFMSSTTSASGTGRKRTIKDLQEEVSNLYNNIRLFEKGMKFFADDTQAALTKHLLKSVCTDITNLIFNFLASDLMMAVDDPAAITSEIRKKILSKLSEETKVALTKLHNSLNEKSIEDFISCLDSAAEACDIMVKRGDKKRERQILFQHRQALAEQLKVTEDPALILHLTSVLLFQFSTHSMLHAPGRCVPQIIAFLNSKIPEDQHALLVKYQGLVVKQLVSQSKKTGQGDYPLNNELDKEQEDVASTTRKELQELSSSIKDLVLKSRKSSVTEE
UniProt P23258: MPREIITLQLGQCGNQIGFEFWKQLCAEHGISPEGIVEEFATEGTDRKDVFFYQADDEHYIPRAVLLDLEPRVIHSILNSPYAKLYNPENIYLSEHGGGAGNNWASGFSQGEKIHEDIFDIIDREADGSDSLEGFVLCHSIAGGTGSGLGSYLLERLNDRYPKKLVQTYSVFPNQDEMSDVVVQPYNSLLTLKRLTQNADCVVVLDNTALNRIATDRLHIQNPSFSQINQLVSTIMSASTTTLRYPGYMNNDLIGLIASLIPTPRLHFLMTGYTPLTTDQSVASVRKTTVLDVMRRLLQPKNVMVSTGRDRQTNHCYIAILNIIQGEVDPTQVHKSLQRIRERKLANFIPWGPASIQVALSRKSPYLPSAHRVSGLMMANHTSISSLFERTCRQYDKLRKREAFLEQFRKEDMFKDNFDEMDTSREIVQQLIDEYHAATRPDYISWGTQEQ
UniProt P06748: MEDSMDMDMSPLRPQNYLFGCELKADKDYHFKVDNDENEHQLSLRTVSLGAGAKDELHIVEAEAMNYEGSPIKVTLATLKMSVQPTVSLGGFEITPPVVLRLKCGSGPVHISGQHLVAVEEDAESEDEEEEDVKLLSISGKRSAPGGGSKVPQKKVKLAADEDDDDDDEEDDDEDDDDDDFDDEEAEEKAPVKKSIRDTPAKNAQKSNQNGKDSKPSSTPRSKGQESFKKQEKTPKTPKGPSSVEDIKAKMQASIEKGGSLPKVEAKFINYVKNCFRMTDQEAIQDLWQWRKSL

No constants are given. Whether binding was seen depends on the method and setting. Binding can be weak; no strength is given. For some of these results: In cells and extracts the contact can be indirect. For some of these results: Tags and fused reporters may be left off the sequences shown.

The target in test [1] is N-terminally EGFP-tagged human UFL1 (human) (UniProt O94874). Kind of test: co-IP; extracts of U2OS cells expressing EGFP-UFL1, C53-EGFP or EGFP alone; precipitated with Ab to GFP or, reciprocally, Ab to γ-tubulin; immunoblot. In general terms: A western blot detects proteins with antibodies after separation by electrophoresis.
The target in test [2] is C-terminally EGFP-tagged human CDK5RAP3 (C53) (human) (UniProt Q96JB5). Described as above.
The target of test [3] is N-terminally GST-tagged full-length UFL1 (aa 1-794) (human) (UniProt O94874). In words: pull-down; immobilised GST-tagged UFL1, C53 or γ-tubulin, or GST alone, incubated with whole-cell extracts (1% NP-40 in HEPES buffer); immunoblot; only the target purified.
The target of test [4] is N-terminally GST-tagged full-length human CDK5RAP3 (C53) (human) (UniProt Q96JB5). The test is described as above.
In test [5] the target is N-terminally GST-tagged full-length human γ-tubulin-1 (human) (UniProt P23258). In words: pull-down; beads with immobilised GST-γ-tubulin or GST alone incubated with purified FLAG-tagged UFL1, C53 or nucleophosmin at 0.5 μg/mL in TBST (10 mM Tris-HCl, pH 7.4, 150 mM NaCl, 0.05% Tween 20); immunoblot; both purified.
Test [6] addresses γ-tubulin, endogenous human (human (endogenous in U2OS and T98G)) (UniProt P23258). In words: co-IP; extracts of U2OS cells expressing EGFP-UFL1, C53-EGFP or EGFP alone; precipitated with Ab to GFP or, reciprocally, Ab to γ-tubulin; immunoblot.

For “γ-tubulin, endogenous human (from UniProt P23258)”, the binding result in test [1], in test [2], in test [3] and in test [4] was “binds” each time.

In the case of “Purified C-terminally FLAG-tagged nucleophosmin (negative control) (from UniProt P06748 1-294)”, the binding result in test [5] is “no binding (tested: 0.5 μg/mL)”.

Turning to “C-terminally FLAG-tagged human UFL1, purified (from UniProt O94874-1 1-794)”, the binding result in test [5] is given as “binds weakly”.

Turning to “N-terminally EGFP-tagged human UFL1 (from UniProt O94874-1 1-794)”, the binding result in test [6] is listed as “binds”.
